Source: paper PMC3636079, “Determinants at the N- and C-termini of Gα12 required for activation of Rho-mediated signaling” (Journal of Molecular Signaling, 2013)
Results are given in words; binding and its absence hold for the method and conditions named. Binding seen in cells or lysates may run through a third protein. Some binding calls cover weakened binding; strength is not graded here. Where a sequence is shown, tags or fusion partners need not be part of it.

By UniProt entry, the sequences of proteins in these tests, tags left out. Residues count along the entry.
UniProt P12830, residues 785-882: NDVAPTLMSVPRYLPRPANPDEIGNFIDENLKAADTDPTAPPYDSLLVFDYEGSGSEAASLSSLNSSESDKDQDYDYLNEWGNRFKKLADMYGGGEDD
UniProt P30153: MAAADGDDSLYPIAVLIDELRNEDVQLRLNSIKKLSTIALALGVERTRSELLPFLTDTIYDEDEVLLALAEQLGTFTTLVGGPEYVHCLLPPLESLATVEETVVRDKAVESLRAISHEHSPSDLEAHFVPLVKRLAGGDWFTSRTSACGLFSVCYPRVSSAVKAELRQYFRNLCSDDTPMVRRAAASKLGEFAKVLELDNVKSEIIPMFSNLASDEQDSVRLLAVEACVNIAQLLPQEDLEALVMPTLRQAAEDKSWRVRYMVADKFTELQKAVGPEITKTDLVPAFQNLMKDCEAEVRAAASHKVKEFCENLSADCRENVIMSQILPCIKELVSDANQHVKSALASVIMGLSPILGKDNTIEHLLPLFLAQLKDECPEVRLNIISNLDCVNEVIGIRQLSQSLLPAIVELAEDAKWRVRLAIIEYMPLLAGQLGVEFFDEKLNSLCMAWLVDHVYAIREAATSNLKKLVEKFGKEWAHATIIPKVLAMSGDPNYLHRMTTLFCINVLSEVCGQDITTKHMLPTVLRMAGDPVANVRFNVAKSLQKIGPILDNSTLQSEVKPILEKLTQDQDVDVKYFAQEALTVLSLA

Key:
Assay in all cases: pull-down; GST fusion (or GST alone) immobilised on glutathione-sepharose; HEK293 detergent-soluble extract diluted to 0.05% polyoxyethylene-10-lauryl ether in 50 mM HEPES pH 7.5, 1 mM EDTA, 3 mM dithiothreitol, 10 mM MgSO4; about 2 h at 4°C; three washes; immunoblot with anti-Gα12 or anti-myc; band intensities given as pulldown:load ratio; only the target purified
[1] = biological target: T1, GST fusion of amino acids 1-252 of p115RhoGEF (GST-p115-RH) (UniProt Q92888)
T1 sequence: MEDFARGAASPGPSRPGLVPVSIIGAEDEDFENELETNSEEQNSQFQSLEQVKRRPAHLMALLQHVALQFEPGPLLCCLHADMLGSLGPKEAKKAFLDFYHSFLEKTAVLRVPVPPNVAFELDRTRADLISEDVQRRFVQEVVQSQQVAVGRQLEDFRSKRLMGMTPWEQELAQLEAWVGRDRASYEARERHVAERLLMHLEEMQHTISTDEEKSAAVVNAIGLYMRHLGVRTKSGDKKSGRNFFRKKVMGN

[2] = biological target: T2, GST fusion of amino acids 320-606 of LARG (GST-LARG-RH) (UniProt Q9NZN5)
T2 sequence: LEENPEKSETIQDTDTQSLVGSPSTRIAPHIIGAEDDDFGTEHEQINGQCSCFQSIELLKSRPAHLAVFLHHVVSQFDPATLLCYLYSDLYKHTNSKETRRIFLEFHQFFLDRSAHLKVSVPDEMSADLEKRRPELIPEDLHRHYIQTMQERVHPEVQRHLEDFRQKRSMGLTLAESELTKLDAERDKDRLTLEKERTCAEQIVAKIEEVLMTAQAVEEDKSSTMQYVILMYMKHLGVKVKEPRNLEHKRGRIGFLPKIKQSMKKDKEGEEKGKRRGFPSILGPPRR

[3] = biological target: GST fusion of the C-terminal 98 amino acids of E-cadherin (UniProt P12830)
[4] = biological target: T3, GST fusion of protein phosphatase-5 (UniProt P53041)
T3 sequence: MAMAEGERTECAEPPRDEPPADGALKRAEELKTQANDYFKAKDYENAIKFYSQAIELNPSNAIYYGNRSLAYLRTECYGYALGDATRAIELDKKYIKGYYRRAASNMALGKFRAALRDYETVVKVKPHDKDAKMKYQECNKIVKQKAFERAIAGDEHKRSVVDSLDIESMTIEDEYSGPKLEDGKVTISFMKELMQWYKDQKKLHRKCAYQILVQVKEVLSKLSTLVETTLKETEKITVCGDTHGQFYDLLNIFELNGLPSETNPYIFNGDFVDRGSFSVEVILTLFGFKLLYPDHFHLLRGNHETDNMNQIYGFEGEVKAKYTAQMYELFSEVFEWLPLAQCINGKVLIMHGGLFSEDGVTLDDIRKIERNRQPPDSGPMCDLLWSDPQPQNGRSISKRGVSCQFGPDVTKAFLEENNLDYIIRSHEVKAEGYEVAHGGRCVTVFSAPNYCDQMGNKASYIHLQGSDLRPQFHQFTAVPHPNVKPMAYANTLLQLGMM

[5] = biological target: GST fusion of the C-terminal 107 amino acids of heat shock protein-90 alpha (UniProt P07900)
[6] = biological target: GST fusion of the scaffolding Aα subunit of protein phosphatase-2A (UniProt P30153)

Measured: binding

B1: myc-tagged Gα12 Gln^229Leu (myc-Gα12^QL) (protein, UniProt P27600 1-379)
chain: MSGVVRTLSRCLLPAEAGARERRAGAARDAEREARRRSRDIDALLARERRAVRRLVKILLLGAGESGKSTFLKQMRIIHGREFDQKALLEFRDTIFDNILKGSRVLVDARDKLGIPWQHSENEKHGMFLMAFENKAGLPVEPATFQLYVPALSALWRDSGIREAFSRRSEFQLGESVKYFLDNLDRIGQLNYFPSKQDILLARKATKGIVEHDFVIKKIPFKMVDVGGLRSQRQKWFQCFDGITSILFMVSSSEYDQVLMEDRRTNRLVESMNIFETIVNNKLFFNVSIILFLNKMDLLVEKVKSVSIKKHFPDFKGDPHRLEDVQRYLVQCFDRKRRNRSKPLFHHFTTAIDTENIRFVFHAVKDTILQENLKDIMLQ
binds: all assays above

B2: Gα12 Gln^229Leu, untagged (Gα12^QL) (protein, UniProt P27600 1-379)
chain: B1 chain
binds: [1]
